Reference: PubChem BioAssay AID624297 (National Center for Advancing Translational Sciences (NCATS), 2012)
Hit rate of the full screen: of about 340,000 compounds, about 6,200 (1.8%) were called active. The inconclusive results got no clear call from the source; some entries with a clear call stand among them for comparison. The call rests on the fitted dose curve; in most records, active means well fitted activation curve with a large enough effect; inconclusive means small, poorly fitted or top-dose-only effect; inactive means no such curve, though single readings can be large or run the other way. Potencies beside an inconclusive call are fits to weak or partial responses and may not hold up.

Experiment: A quantitative high throughput screen for small molecules that induce DNA re-replication in SW480 colon adenocarcinoma cells. Further: nearly all actives have a fitted effect of over 55% in size. On re-replication activation: % of control where 0% means no effect.
Conditions: Hoechst DNA content imaging, 48 h; re-replication activation: at 46.1 µM (top of the series)
Procedure, shortened: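 Image-based read-out: total Hoechst fluorescence of nuclei (405 nm excitation, 500-530 nm emission), with hits raising the fraction of high-intensity nuclei. SW480 colon cells incubated 48 hr with compounds at 37 C.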
Potency means the concentration at half of the fitted maximal effect.

Q: Which Potency does the source give for C[C@H](CO)N1C[C@H](C)[C@@H](CN(C)S(=O)(=O)c2ccc(F)cc2)Oc2ccc(NC(=O)Nc3ccc(C(F)(F)F)cc3)cc2C1=O here?
A: The Potency was “inactive”.

Q: With COC(=O)c1ccc(C2N=C(c3cccs3)CC(c3ccccc3O)N2)cc1 (stereo not given) as the molecule, how does the Potency read?
A: Its Potency is inconclusive: 29.1 µM [activator, single point].

Q: With Cc1nn(Cc2c(Cl)cccc2Cl)c(C)c1NC(=O)c1sc2ccccc2c1Cl as the molecule, how does the Potency read?
A: Its Potency is inconclusive: 29.1 µM [activator, single point].

Q: With Cc1ccc(NC(=O)c2cccs2)cc1NC(=O)c1cccc(F)c1 as the molecule, how does the Potency read?
A: The Potency was inconclusive: 4.11 µM [activator, single point].

Q: Which Potency does the source give for CC(C)C(NS(=O)(=O)c1cccc2nsnc12)C(=O)Nc1nc2ccc(Cl)cc2s1 (stereo not given) here?
A: Its Potency is “inactive”.

Q: Which Potency does the source give for COCCn1c(SCc2nc3scc(-c4ccc(Cl)cc4)c3c(=O)[nH]2)nnc1-c1cccc(C)c1 here?
A: Its Potency is inconclusive: 18.4 µM [activator, single point].

Q: For O=C(NCC1CCCCC1)C1(CC2CC(c3cccc(Br)c3)=NO2)CCNCC1 (stereo not given), which Potency is on record?
A: The Potency was inconclusive: 6.51 µM [activator, single point].

Q: With COc1ccc([C@H]2[C@@H]3C=CCC[C@@]3(C)C(=O)N2Cc2ccccc2)cc1Cl as the molecule, how does the Potency read?
A: Its Potency is inconclusive: 23.1 µM [activator, partial curve, poor fit].

Q: Which Potency does the source give for CCCCCCCCN1[C@@H](CC(=O)O)c2cc(C(F)(F)F)ccc2S1(=O)=O here?
A: Its Potency is inconclusive: 3.66 µM [activator, single point].

Q: Which Potency does the source give for C/C(=N\NC(=O)c1ccco1)c1ccc(NC(=O)C(F)(F)F)cc1 here?
A: The Potency was “inactive”.

Q: With COc1ccc(Cc2nc3ccccc3n2CC(=O)N/N=C/c2ccc(C)cc2O)cc1OC as the molecule, how does the Potency read?
A: Its Potency is inconclusive: 4.61 µM [activator, single point].

Q: Which Potency does the source give for O=C(CCCOc1ccccc1)N1CCN(S(=O)(=O)c2ccccc2)CC1 here?
A: The Potency was “inactive”.

Q: With COc1ccc(/C=N/NC(=O)c2c([N+](=O)[O-])c(C)nn2C)cc1 as the molecule, how does the Potency read?
A: The Potency was inconclusive: 6.51 µM [activator, single point].

Q: Which Potency does the source give for COc1ccccc1C(c1nnnn1CCc1ccccc1)N1CCCCCC1 (stereo not given) here?
A: Its Potency is inconclusive: 23.1 µM [activator, single point].

Q: Which Potency does the source give for COc1cc2c(C(=O)N3CCN(c4ccccc4C)CC3)c(C)oc2cc1Br here?
A: Its Potency is “inactive”.

Q: For CC(=O)c1ccc(NC(=O)N2CCN(c3ccc(C)cc3)C(C)C2)cc1 (stereo not given), which Potency is on record?
A: The Potency was inconclusive: 0.326 µM [activator, partial curve, poor fit].

Q: For O=C(N=c1ccn(-c2nc3ccccc3nc2NS(=O)(=O)c2ccccc2)cc1)c1cccs1, which Potency is on record?
A: Its Potency is inconclusive: 9.2 µM [activator, partial curve, poor fit].

Q: With COc1ccc(CNC(=O)c2cc(S(=O)(=O)N3CCCCC3)ccc2Cl)cc1OC as the molecule, how does the Potency read?
A: The Potency was inconclusive: 29.1 µM [activator, partial curve, poor fit].

Q: With Oc1ccc(Br)cc1-c1nc2cnccn2c1NC1CCCCC1 as the molecule, how does the re-replication activation read?
A: The re-replication activation was inconclusive: 162% [activator].

Q: Which Potency does the source give for CCn1c(=O)c([N+](=O)[O-])c(Cl)c2ccccc21 here?
A: The Potency was active: 8.2 µM.

Q: Which Potency does the source give for Cc1cccc2cc3c(N)c(C#N)sc3nc12 here?
A: Its Potency is inconclusive: 29.1 µM [activator, single point].

Q: With NS(=O)(=O)c1cccc(NC(=O)CCS(=O)(=O)c2ccc(Cl)cc2)c1 as the molecule, how does the Potency read?
A: The Potency was inconclusive: 0.146 µM [activator, full curve, poor fit].

Q: Which Potency does the source give for O=C(NNC1=NCCCCC1)c1cccc([N+](=O)[O-])c1 here?
A: The Potency was “inactive”.

Q: Which Potency does the source give for O=C(Nc1ccc(Br)c(C(F)(F)F)c1)c1ccc(C(F)(F)F)cc1 here?
A: The Potency was inconclusive: 8.2 µM [activator, partial curve, poor fit].

Q: With O=C(COc1ccccc1)Nc1cccc(-c2nc3cc4ccccc4cc3[nH]2)c1 as the molecule, how does the Potency read?
A: Its Potency is inconclusive: 29.1 µM [activator, single point].

Q: Which Potency does the source give for Cc1cccc(N/C(N)=N/c2nc(CSc3ccc(Cl)cc3)cc(=O)[nH]2)c1 here?
A: The Potency was inconclusive: 2.59 µM [activator, partial curve, poor fit].

Q: With Cc1ccc(C(=O)NC(=S)Nc2ccccc2N2CCOCC2)cc1C as the molecule, how does the Potency read?
A: The Potency was inconclusive: 29.1 µM [activator, single point].

Q: With CN1CCN(CCC(=O)N/N=C/c2cc([N+](=O)[O-])ccc2O)CC1 as the molecule, how does the Potency read?
A: The Potency was “inactive”.

Q: Which Potency does the source give for CC1CCN(Cc2c(O)ccc3c(=O)c(-c4nc5ccccc5s4)c(N)oc23)CC1 here?
A: Its Potency is “inactive”.

Q: For CN1CCN(c2nc3cc(C(F)(F)F)ccc3n3cccc23)CC1, which Potency is on record?
A: Its Potency is “inactive”.

Q: With CCCc1cc(C(=O)Nc2ccc(C(=O)c3ccc(C)cc3)cc2)n(C)n1 as the molecule, how does the Potency read?
A: The Potency was “inactive”.

Q: With COc1cc(CN2CCC(C(=O)NCCC(C)C)CC2)ccc1OCc1ccccc1 as the molecule, how does the Potency read?
A: The Potency was inconclusive: 29.1 µM [activator, single point].

Q: With COc1cc2c(c(OC)c1OC)C(c1ccc3c(c1)OCO3)CC(=O)O2 (stereo not given) as the molecule, how does the Potency read?
A: The Potency was “inactive”.

Q: For Cc1cc(C(=O)N/N=C/c2cccc3ccccc23)c(C)o1, which Potency is on record?
A: The Potency was inconclusive: 29.1 µM [activator, single point].

Q: With O=C(CCN1C(=O)COc2ccccc21)NCc1ccco1 as the molecule, how does the Potency read?
A: Its Potency is “inactive”.

Q: Which re-replication activation does the source give for Cc1nnc(NC(=O)C23CC4CC(C)(CC(C)(C4)C2)C3)s1 here?
A: Its re-replication activation is inactive: 5.28% [at 1.84 µM].

Q: Which Potency does the source give for CN(Cc1cccc(Cl)c1Cl)C(=O)c1cccc(S(=O)(=O)N2CCN(Cc3ccccc3)CC2)c1 here?
A: The Potency was “inactive”.

Q: Which Potency does the source give for Cc1ccc(N(Cc2cc3ccc(C)cc3[nH]c2=O)C(=O)c2ccco2)c(C)c1 here?
A: Its Potency is “inactive”.

Q: With O=C(Cn1c(=O)c2cccn2c2ccccc21)NCc1cccc(F)c1 as the molecule, how does the Potency read?
A: The Potency was inconclusive: 3.16 µM [activator, partial curve, poor fit].

Q: For CCOc1c(Br)cc(CNc2ccc(N3CCOCC3)cc2)cc1OC, which Potency is on record?
A: The Potency was “inactive”.

Q: With CC1CCc2sc(C(=O)NCC(C)(C)N3CCOCC3)cc2C1 (stereo not given) as the molecule, how does the Potency read?
A: Its Potency is inconclusive: 23.1 µM [activator, partial curve, poor fit].

Q: For COc1ccc(-c2nc(CS(=O)CC(=O)NCc3ccco3)c(C)o2)cc1OC (stereo not given), which Potency is on record?
A: Its Potency is inconclusive: 6.51 µM [activator, partial curve, poor fit].

Q: Which Potency does the source give for COc1ccc(OC)c(S(=O)(=O)NCc2cn3ccsc3n2)c1 here?
A: The Potency was inconclusive: 1.16 µM [activator, partial curve, poor fit].

Q: With O=S(=O)(Nc1ccccc1N1CCCCC1)c1ccc(Cl)s1 as the molecule, how does the Potency read?
A: Its Potency is “inactive”.

Q: Which Potency does the source give for COc1cc(OC)c(C(=O)Nc2cc(Cl)ccc2-n2cncn2)cc1OC here?
A: The Potency was active: 5.17 µM.

Q: Which Potency does the source give for CCOC(=O)C1=C(N)Oc2cc(O)ccc2C1c1cccc([N+](=O)[O-])c1 (stereo not given) here?
A: The Potency was inconclusive: 20.6 µM [activator, single point].

Q: With O=C(CNC(=S)NC(=O)C1CCCCC1)c1ccccc1 as the molecule, how does the Potency read?
A: Its Potency is inconclusive: 29.1 µM [activator, single point].

Q: With CCOc1ccc(NC(=O)CSc2nc3ccccc3c(=O)n2Cc2cccs2)cc1 as the molecule, how does the Potency read?
A: Its Potency is active: 1.64 µM.

Q: For CS(=O)(=O)N1CCc2cc(C(=O)Nc3ccc(O)cc3)ccc21, which Potency is on record?
A: The Potency was “inactive”.

Q: For N/C(=N\NC(=O)c1ccc(Cl)cc1)c1cnccn1, which Potency is on record?
A: Its Potency is inconclusive: 0.731 µM [activator, full curve, poor fit].

Q: For Cn1c(C(=O)N2CCN(c3ncccn3)CC2)cc2c(=O)n(C)c3ccccc3c21, which Potency is on record?
A: Its Potency is “inactive”.

Q: With O=c1c2ccccc2cnn1-c1nc2ccccc2[nH]1 as the molecule, how does the Potency read?
A: The Potency was “inactive”.

Q: For C[N+]1(CC(O)COCC2COc3ccccc3O2)CCOCC1 (stereo not given), which Potency is on record?
A: Its Potency is inconclusive: 4.61 µM [activator, full curve, poor fit].

Q: With O=C(c1ccc(S(=O)(=O)c2ccc(F)cc2)c([N+](=O)[O-])c1)N1CCCCCC1 as the molecule, how does the Potency read?
A: Its Potency is inconclusive: 18.4 µM [activator, single point].

Q: Which Potency does the source give for COC(=O)CNC(=O)COC(=O)/C=C/c1cccs1 here?
A: Its Potency is “inactive”.

Q: With CCCCn1ccnc1C(=O)c1ccc(S(=O)(=O)N2CCCC2)cc1 as the molecule, how does the Potency read?
A: Its Potency is inconclusive: 1.64 µM [activator, partial curve, poor fit].

Q: Which Potency does the source give for CN(C)c1ccc(CNCCC(Cc2ccccc2)c2ccco2)cc1 (stereo not given) here?
A: The Potency was inconclusive: 18.4 µM [activator, single point].

Q: For Cc1ccc(C2=CC(c3ccccc3)n3ncnc3N2)cc1 (stereo not given), which Potency is on record?
A: Its Potency is inconclusive: 0.651 µM [activator, full curve, poor fit].

Q: For Cn1ncc(Cl)c1C(=O)N1CCN(S(=O)(=O)c2cccs2)CC1, which Potency is on record?
A: Its Potency is “inactive”.

Q: For COc1ccc(/C=C2\SC(=Nc3ccccc3OC)NC2=O)cc1, which Potency is on record?
A: The Potency was inconclusive: 9.2 µM [activator, single point].

Q: With COc1ccc(NC2=C(Cl)C(=O)N(CCc3ccccc3)C2=O)c(OC)c1 as the molecule, how does the Potency read?
A: The Potency was “inactive”.

Q: For CSc1nnc(-c2ccccc2N=Cc2c(C)[nH]n(-c3ccccc3)c2=O)c(=O)[nH]1, which Potency is on record?
A: The Potency was “inactive”.

Q: With O=C(Nc1ncc(S(=O)(=O)c2ccc([N+](=O)[O-])cc2)s1)c1cccnc1 as the molecule, how does the Potency read?
A: The Potency was inconclusive: 20.6 µM [activator, partial curve, poor fit].

Q: Which Potency does the source give for CC1=NN(C(=O)CCc2ccccc2)C(c2ccccc2)C1 (stereo not given) here?
A: The Potency was “inactive”.

Q: Which Potency does the source give for Cn1nc(C(=O)NNC(=O)c2ccccc2Br)c2ccccc2c1=O here?
A: The Potency was “inactive”.

Q: Which Potency does the source give for COC(=O)c1sccc1NC(=S)Nc1cc(OC)ccc1OC here?
A: Its Potency is “inactive”.

Q: Which Potency does the source give for Cc1oc2c(CN3CCC(C)CC3)c(O)ccc2c(=O)c1-c1ccccc1 here?
A: Its Potency is inconclusive: 0.82 µM [activator, full curve, poor fit].

Q: Which Potency does the source give for Cc1cc2cc(C(c3nnnn3Cc3ccccc3)N3CCc4ccccc43)c(=O)[nH]c2cc1C (stereo not given) here?
A: The Potency was inconclusive: 29.1 µM [activator, single point].

Q: For CC(C)(C)NC(=O)C[C@H]1C[C@H](C(=O)N2CCOCC2)[C@@]2(C)c3[nH]c4ccc(Cl)cc4c3CCN2C1=O, which Potency is on record?
A: Its Potency is “inactive”.

Q: With CCC(C)NC(=O)Cn1ccc2cc(S(=O)(=O)N3CCCCCC3)ccc21 (stereo not given) as the molecule, how does the Potency read?
A: Its Potency is inconclusive: 18.4 µM [activator, partial curve].
